Variants at the floor of the assay are shown more often than the library holds them.

Results on 37 variants are retold here after the RNAGym collection of RNA variant scans (doi:10.1126/science.aae0568).

B1: tRNA (parent)
chain: GUUCCGUUGGCGUAAUGGUAACGCGUCUCCCUCCUAAGGAGAAGACUGCGGGUUCGAGUCCCGUACGGAACG

Variants of B1 are the subject of the data set. Description: yeast fitness relative to wild type (ratio to wild type); higher = fitter; tRNA-Arg(CCU), competitive growth, 37 C, YPD. The method in brief:
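Amplicons of the tRNA-Arg(CCU) gene were sequenced, 100-nucleotide paired-end, from the start population and from each end population of a pooled yeast competition. The competition, in six parallel replicates, lasted 24 hours in YPD at 37°C. Fitness relative to wild type was calculated from changes in genotype frequencies. Genotypes had to have ≥ 100 starting reads, and estimates < 0.5 were set to 0.5.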
For GUUCCGUUGGCGUAACGGUAACGCGUCUCCCUCCUAAGGAGAAGACUGCGGGUACGAGUCCCGUAUGGAACG [U16C U54A C66U], the yeast fitness is ≤ 0.5.
The figure for GUACCGUUGGCGUAAUGGUAACGGGUCUCCCUCCUGAGGAGAAGACUGCGGGUUCGAGUCACGUACGGAACG [U3A C24G A36G C61A] is ≤ 0.5; for GUCCCGUUGGCGUACUGGUAACGCGUCUCCCUCCUAAGGAGAAGACUGCGGGUUCGAGUCCCGUCCGGAACG [U3C A15C A65C] it is ≤ 0.5.
The figure for GUUCCGUUGCCGUAUUGGUAACGUGUCUCCCUCCUAAGGAGAAGACUGCGGGUUCGAGUCCCGUACGGAACG [G10C A15U C24U] is ≤ 0.5; for GUCCUGUUGGCGUAAUGGUAACGCGUCUCCCUCCUAAGCAGAAGACUGCGGGUUCGAGUCCCGUACGGAACG [U3C C5U G39C] it is 0.57; for GUUCCGUUGGCGUAAUGGUAACGCGUCUCCCUCCUAAGGAGAAGACUGUGGGUUCGAAUCCCGUGCGGAACG [C49U G58A A65G] it is 1.
With GCUCCGUUGGCGUAUAGGUAACGCGUCUCCCUCCUAAGGAGAAGACUGCGGGUUCGAGUCCCGUACGGAACG [U2C A15U U16A] the figure was 0.62; with GUUCUGUUGGCGUAAUGGUAACGCGUCUCCCUCCUAAGGAAAAGACUGCGGGUUCCAGUCCGGUACGGAACG [C5U G41A G56C C62G], ≤ 0.5.
Consider GUUCCGUUGGCGUAAUGGUAACGGGUCUCCCUCCUAAGGAGAAGACUGCAGAUUCGAGUCCCGUAUGGAACG [C24G G50A G52A C66U], for which the yeast fitness was ≤ 0.5.
With GUUCCGUUGGCGUGAUGGAAACGCGUCUCCCUCCUAAGGAGAAGACUGCGGGUUUGAGUCCCGUACGGAACG [A14G U19A C55U] the figure was ≤ 0.5; with GUUCCGUUGGCGUAAUGGUAACGCGUCUCCCGCCAAAGAAGAACACUGCGGGUUCGAGUCCUGUACGGAACG [U32G U35A G39A G44C C62U], ≤ 0.5.
The figure for GUUCCGUUGGCGUAAUGAUAACGCGACUCCCUCCUAAGGUGAAGACUGCGGGUUCGCGUCCCGUACGGAACG [G18A U26A A40U A57C] is ≤ 0.5; for GUUCCGUUGGCGUAUUGGUAACGCGUCUCCCUCCUAAGGAGAAGACUGCGGGUUCGAGUCCCGUGCGGAACG [A15U A65G] it is 0.649; for GUUCCGUUGGCGUAAUGGUAACGCGUCUCCCUCCUAAGGAGCAGACUGCGGGUUCGAGUCCCGUACGAAACG [A42C G68A] it is 0.898.
In the case of GUUCCGUUGGCGUAAUGGUAACGCGUCUCCCUGCUAGGGAGAAGACUGCGGGUUCGAGUCCCGUAAGGAACG [C33G A37G C66A], the yeast fitness is ≤ 0.5.
With GUUCCGUUGGCGUACUGGUAACGCGUCUCCGUGCUAAGGAGAAGACUGCGGGUUUGAGUCCCGUACGGAACG [A15C C31G C33G C55U] the figure was ≤ 0.5; with GUUGCGUUGGCGUUAUGGUAACGCGUCUCCCUGCUAAGGAGAAGACGGCGGGUUCGGGUCCCGUACGGAACG [C4G A14U C33G U47G A57G], ≤ 0.5.
Take GUUCCGUUGGAGUAAUGGUAACGCGUCUCCCUCCUAAGGAGAAGAUUGCGGGUUCCAGUCCCGUACGGGACG [C11A C46U G56C A69G]: the yeast fitness is ≤ 0.5.
The figure for GUUGCGUUGGCGUAAUGGUAACGCGUCUCCCUCCUAAGGGGAAGACUGCGGGUUUGAGUCCCGUACGGAACG [C4G A40G C55U] is ≤ 0.5.
With GUUCCGUUGGAGUAAUGGUAGCGCGUCUCCCUCGUAACGAGAAGACUGCGGGUUCGAGUCCGGUACGGCACG [C11A A21G C34G G38C C62G A69C], the yeast fitness was ≤ 0.5.
The figure for GUUCCCUUGGCGUAAUGGUAACGCGUGUCCCUCCUAAGGAGUAGACUGCGGGUUCGAGUCCCGUACGGAACG [G6C C27G A42U] is ≤ 0.5; for GUUCCGUUGGCGUAAUGGUAAGGCGUCUCCCUCCUAAGGAGAAGACUGCGGCUUCGAGUCGCGUACGGAACG [C22G G52C C61G] it is ≤ 0.5.
The figure for GUUCCGUUGGCGUAAUCGUAAGGCGUCUCCCUCCUAAGGAGAAGACUGCGGGUUCGAGUCCCGUACGGAACG [G17C C22G] is 0.619; for GUUCCGUUGGCGUAAUGGUAACGCGUCUCCCUCCUAAGGAGAAGACUGCGGGUUCGAGAGCCGUACGGAACG [U59A C60G] it is 0.655.
With GUUCCGUUAGCGUCAUGGUAACGCGUCUCCCUCCUAAGGAGAAGACUGCGGGUUUGAGUCCCGUACGGAACG [G9A A14C C55U] the figure was ≤ 0.5; with GUUCCGUUGGCGUAAUGGUAACGCGUCUCCCUCCUAAGGAGAAGACUGCGGGUUCGAGUCCCCCACGGAACG [G63C U64C], 0.969.
Consider GUUCGGUUGGCGUAAUGGUGACGCGUCUCCCUCCUAAGGAGGAGACUGCGGGUUUGAGUCCCGUAGGGAACG [C5G A20G A42G C55U C66G], for which the yeast fitness was ≤ 0.5.
For the variant GUUCCGUUGGCGUAAUGCUAACGUGUCUCCCUCUUAAGGGGAAGACUGCGGGUUGGAGUCCCGUGCGGAACG [G18C C24U C34U A40G C55G A65G], the yeast fitness was ≤ 0.5.
The figure for GUACCGUUGGCGUAAUGGUAACGCGUCUCCCUCCUAAGGAGCAGACUGCGGGUUCGAGUCCCGUUUCGAACG [U3A A42C A65U C66U G67C] is 0.569.
For GCUCCGUUGGCGCAAUGGUAACGCGUCUCCCUCCUAAGGAGAAGACUGCGGGUUCGAGUCGCGUACGGAACG [U2C U13C C61G], the yeast fitness was ≤ 0.5.
The figure for GUUCCGUUGGCGUAAUGGUAACGCGUCUCCCUCCUAAGGUGAAGACUGCGGGUUCGAGUCCCGUACGGAGCG [A40U A70G] is 0.934; for GAUCCGUUGGCGUUAUGGUAACGCGUCUCCCUCCUAAGGAGAAGACUGCGGGUUCGAGUCCUGCACGGAACG [U2A A14U C62U U64C] it is ≤ 0.5; for GUUCCGUUGGCGUAAUGGUAACGCGUCUCCCUGCUAAGGAGAAGACUGCGGGUUCGAGACGCGUACGGAACG [C33G U59A C61G] it is ≤ 0.5.
With GUAUCGUUGGCGUAAUGGUAACGCGUCUCCCUCCUAAGGAGAAGACUGCGGGUUCGAGUCCCGUACCGAACG [U3A C4U G67C] the figure was 0.624; with GUUCCGUAGGCGUAAUGGUAACGAGUCUCUUUCCUAAGGAGAAGACUCCGGGUUCGAGUCCCGUACGGAACG [U8A C24A C30U C31U G48C], 0.58; with GUUCCGUUGGCGUUAUGGUAACGCGUCUGCCUCCUAAGGAGAAGACUGCGGGCGCGAGUCCCGUACGGAACG [A14U C29G U53C U54G], 0.571.
The figure for GUUCCGUUGGCGUAAUGAUAACCCGUCUCGCUCCUUAGGAGAAGACUGCGGGUUCGAGUCCCGUACGGAACG [G18A G23C C30G A36U] is ≤ 0.5.
